Measurements reported in PubChem BioAssay AID720505 (Drosophila RNAi Screening Center, 2013).
In all, the deposit lists about 20,000 reagents; this is a random part of those that have a named target and a result. Of all reagents, about 2,100 (10%) are marked active. 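Raw plate signals without normalisation; calls rest on control-based scores that were not deposited; replicate 2 separates called from uncalled poorly.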 Unmarked entries are inactive. No sequences are given here. Not given: the amount of reagent, the time to read-out.

Aim: 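Genes needed for store-operated calcium entry in fly cells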 (primary screen)
Cell system: Drosophila S2R+ cells
Reagents: long dsRNA against Drosophila genes
Conditions: thapsigargin (2 µM) in calcium-free buffer to empty internal stores, then 2 mM calcium added back
Detection: 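Fluo-4 signal in 384-well plates read on a FLIPR after thapsigargin (2 µM, calcium-free) store depletion and 2 mM calcium add-back; unnormalised mean endpoint per well; screen run twice, selected wells retested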
Reading the numbers: calcium signal and retest calcium signal: higher = more calcium entry after store depletion
Call rule: 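Knock-downs counted as hits when calcium entry dropped relative to STIM1 positive and Rho1 negative controls present on each plate; roughly 1500 genes called, with reductions of differing size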
Calls: active = called as lowering calcium entry; inactive = not called

| target gene | amplicon | calcium signal, replicate 1 | calcium signal, replicate 2 | retest calcium signal, replicate 1 | retest calcium signal, replicate 2 |
| --- | --- | --- | --- | --- | --- |
| CG15484 (GeneID 34682) | DRSC02494 | 107 | 183 | 94.5 | 114 |
| CG15484 (GeneID 34682) | DRSC22836 | 83.6 | 97 | – | – |
| CG8248 (GeneID 35888) | DRSC07124 | 167 | 170 | – | – |
| hang (GeneID 32613) | DRSC19901 | 160 | 139 | – | – |
| hang (GeneID 32613) | DRSC19902 | 90.9 | 117 | – | – |
| hang (GeneID 32613) | DRSC23216 | 170 | 206 | – | – |
| Nsun5 (GeneID 7354421) | DRSC15835 | 146 | 280 | – | – |
| CG43190 (GeneID 12798407) | DRSC05316 | 72.1 | 111 | – | – |
| ab (GeneID 34560) | DRSC01162 | 126 | 94.4 | – | – |
| ab (GeneID 34560) | DRSC03478 | 190 | 168 | – | – |
| ab (GeneID 34560) | DRSC23151 | 79.7 | 144 | – | – |
| ab (GeneID 34560) | DRSC23179 | 116 | 103 | – | – |
| Ugt37A1 (GeneID 35307) | DRSC02114 | 227 | 90 | – | – |
| Tsp42Ee (GeneID 35614) | DRSC05947 | 85.2 | 106 | – | – |
| CG18294 (GeneID 40115) | DRSC09891 | 126 | 159 | – | – |
| CG7255 (GeneID 39662) | DRSC10790 | 107 | 75.5 | – | – |
| CG13794 (GeneID 34048) | DRSC02298 | 121 | 102 | – | – |
| Rab26 (GeneID 40359) | DRSC11837 | 52.1 (active) | 171 | – | – |
| Rab26 (GeneID 40359) | DRSC11838 | 81.8 | 90.2 | – | – |
| Rab26 (GeneID 40359) | DRSC11839 | 61.2 (active) | 113 | – | – |
| CG14757 (GeneID 35797) | DRSC06492 | 127 | 142 | – | – |
| ppk15 (GeneID 43188) | DRSC14733 | 268 | 127 | – | – |
| ND-13B (GeneID 39214) | DRSC10643 | 60.9 | 56 | – | – |
| Galphai (GeneID 38765) | DRSC11168 | 122 | 96.4 | – | – |
| raptor (GeneID 31543) | DRSC18359 | 264 | 84.3 | – | – |
| l(3)L1231 (GeneID 41776) | DRSC16323 | 158 | 150 | – | – |
| CG30008 (GeneID 246388) | DRSC21576 | 184 | 94.6 | – | – |
| CG3097 (GeneID 31503) | DRSC18275 | 256 | 109 | – | – |
| sav (GeneID 252554) | DRSC14681 | 231 | 136 | – | – |
| sav (GeneID 252554) | DRSC14682 | 207 | 133 | – | – |
| Eig71Eh (GeneID 39709) | DRSC11155 | 124 | 185 | – | – |
| CG15399 (GeneID 33472) | DRSC00413 | 178 | 166 | – | – |
| bou (GeneID 31644) | DRSC17924 | 245 | 134 | – | – |
| CG2540 (GeneID 32216) | DRSC19856 | 100 | 118 | – | – |
| wun (GeneID 35966) | DRSC07719 | 134 | 171 | – | – |
| Liprin-alpha (GeneID 249072) | DRSC02132 | 114 | 142 | – | – |
| CG31493 (GeneID 318765) | DRSC12583 | 102 | 125 | – | – |
| CG17739 (GeneID 36333) | DRSC06689 | 224 | 102 | – | – |
| Klp68D (GeneID 39332) | DRSC11206 | 144 | 90.7 | – | – |
| Nmdar2 (GeneID 31107) | DRSC18183 | 92.8 | 130 | – | – |
| Nmdar2 (GeneID 31107) | DRSC18511 | 93.4 | 119 | – | – |
| Nmdar2 (GeneID 31107) | DRSC18569 | 94.3 | 135 | – | – |
| tank (GeneID 33684) | DRSC00461 | 179 | 111 | – | – |
| CG11333 (GeneID 43714) | DRSC14301 | 69.1 | 106 | – | – |
| trx (GeneID 41737) | DRSC17089 | 126 | 117 | – | – |
| Had1 (GeneID 32592) | DRSC20216 | 89.1 | 129 | – | – |
| CG12535 (GeneID 31311) | DRSC17838 | 90.7 | 106 | – | – |
| p130CAS (GeneID 38021) | DRSC08257 | 138 | 124 | – | – |
| CG31627 (GeneID 318860) | DRSC22143 | 93.3 | 162 | – | – |
| Jon65Ai (GeneID 38685) | DRSC09731 | 71.2 | 48.9 | – | – |
| Mo25 (GeneID 39858) | DRSC11224 | 84.4 | 98.1 | – | – |
| S6KL (GeneID 45970) | DRSC19349 | 148 | 134 | 123 | 96.8 |
| S6KL (GeneID 45970) | DRSC21578 | 196 | 120 | – | – |
| S6KL (GeneID 45970) | DRSC23147 | 117 | 141 | – | – |
| CG32603 (GeneID 318109) | DRSC19409 | 91.3 | 123 | – | – |
| CG32603 (GeneID 318109) | DRSC21586 | 109 | 89.9 | – | – |
| RPA2 (GeneID 35364) | DRSC03184 | 81.2 | 89.2 | – | – |
| CG43376 (GeneID 12798198) | DRSC02537 | 168 | 129 | – | – |
| obst-E (GeneID 33806) | DRSC02128 | 120 | 252 | – | – |
| CG3734 (GeneID 42318) | DRSC15509 | 254 | 150 | – | – |
| CG15641 (GeneID 32477) | DRSC19677 | 95 | 128 | – | – |
| Mob3 (GeneID 34372) | DRSC02791 | 131 | 147 | – | – |
| CG15394 (GeneID 33446) | DRSC00408 | 175 | 143 | – | – |
| CG8441 (GeneID 36792) | DRSC07180 | 153 | 144 | – | – |
| aux (GeneID 40527) | DRSC12161 | 63.7 (active) | 127 | – | – |
| ChLD3 (GeneID 35002) | DRSC02640 | 57.6 (active) | 83.3 | – | – |
| Fhos (GeneID 39004) | DRSC10545 | 98.5 | 110 | – | – |
| Fhos (GeneID 39004) | DRSC10546 | 98.7 | 76.3 | – | – |
| Fhos (GeneID 39004) | DRSC10547 | 98.9 | 88.4 | – | – |
| CG7208 (GeneID 42172) | DRSC16212 | 225 | 144 | – | – |
| CG7889 (GeneID 32916) | DRSC20066 | 168 | 155 | 96.9 | 102 |
| Rab3 (GeneID 36127) | DRSC07523 | 131 | 159 | – | – |
| Rcd4 (GeneID 34158) | DRSC02597 | 168 | 186 | – | – |
| CG11755 (GeneID 41031) | DRSC14374 | 128 | 132 | – | – |
| Oli (GeneID 35066) | DRSC02866 | 71.8 | 132 | – | – |
| CG1638 (GeneID 43721) | DRSC15132 | 61.5 (active) | 85.8 | – | – |
| CG40006 (GeneID 3355123) | DRSC03787 | 101 | 4060 | – | – |
| CG40006 (GeneID 3355123) | DRSC03809 | 96.2 | 7052 | – | – |
| CG40006 (GeneID 3355123) | DRSC03814 | 104 | 5095 | – | – |
| CG40006 (GeneID 3355123) | DRSC03817 | 121 | 5393 | – | – |
| ArgRS-m (GeneID 40929) | DRSC14186 | 91.9 | 184 | 7525 | 132 |
| wisp (GeneID 32152) | DRSC19703 | 139 | 169 | – | – |
| wisp (GeneID 32152) | DRSC23092 | 106 | 110 | – | – |

Hits, among the entries above:
| target gene | amplicon | calcium signal, replicate 1 | calcium signal, replicate 2 | retest calcium signal, replicate 1 | retest calcium signal, replicate 2 |
| --- | --- | --- | --- | --- | --- |
| Rab26 (GeneID 40359) | DRSC11837 | 52.1 (active) | 171 | – | – |
| Rab26 (GeneID 40359) | DRSC11839 | 61.2 (active) | 113 | – | – |
| aux (GeneID 40527) | DRSC12161 | 63.7 (active) | 127 | – | – |
| ChLD3 (GeneID 35002) | DRSC02640 | 57.6 (active) | 83.3 | – | – |
| CG1638 (GeneID 43721) | DRSC15132 | 61.5 (active) | 85.8 | – | – |
